This is a selection; strong and weak results do not stand in their true shares. For part of these data: At the low end of the ranking the order means little. Some of the results follow. For part of these data: The exact form of the protein is not confirmed.
Key:
[1] = molecular target: HSF1 (UniProt Q00613); assay: DAPPL (digital affinity profiling via proximity ligation, sequencing); settings: 10 mM Tris-HCl pH 7.5, 50 mM NaCl, 1 mM DTT, 4% glycerol, room temperature, 30 min; GST-TFs on glutathione beads, 16-mer random dsDNA library, 0.1% …; high values mean tight binding; double strand, one strand shown; scale: fold enrichment (6-mer frequency, TF over GST control)
[2] = molecular target: T1, ELF2 (UniProt Q15723); assay: as above; settings: 10 mM Tris-HCl pH 7.5, 50 mM NaCl, 1 mM DTT, 4% glycerol, room temperature, 30 min; GST-TFs on glutathione beads, 16-mer random dsDNA library, 0.1% …; high values mean tight binding; double strand, one strand shown; scale: fold enrichment (6-mer frequency, TF over GST control)
T1 sequence: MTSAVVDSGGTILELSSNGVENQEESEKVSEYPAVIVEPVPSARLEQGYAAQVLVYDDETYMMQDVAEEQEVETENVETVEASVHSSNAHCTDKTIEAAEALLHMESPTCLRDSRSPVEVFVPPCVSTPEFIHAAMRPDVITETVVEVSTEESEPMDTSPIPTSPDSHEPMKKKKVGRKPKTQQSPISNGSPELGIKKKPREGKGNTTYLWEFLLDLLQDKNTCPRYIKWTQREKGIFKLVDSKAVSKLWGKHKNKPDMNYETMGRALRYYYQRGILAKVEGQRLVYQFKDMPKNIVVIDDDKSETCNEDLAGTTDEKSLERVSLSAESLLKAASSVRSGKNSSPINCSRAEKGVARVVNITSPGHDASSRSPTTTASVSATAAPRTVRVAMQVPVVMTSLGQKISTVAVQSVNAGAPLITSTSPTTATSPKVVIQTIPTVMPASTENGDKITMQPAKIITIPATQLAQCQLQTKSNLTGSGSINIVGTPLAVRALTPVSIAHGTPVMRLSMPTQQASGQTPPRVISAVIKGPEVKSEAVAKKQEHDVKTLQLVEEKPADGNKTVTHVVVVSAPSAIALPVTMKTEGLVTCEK

Sequences of proteins named here, by UniProt entry; tags and fusion partners are left off. A change or cut given only in a name is not applied to a line headed by its entry.
UniProt Q00613: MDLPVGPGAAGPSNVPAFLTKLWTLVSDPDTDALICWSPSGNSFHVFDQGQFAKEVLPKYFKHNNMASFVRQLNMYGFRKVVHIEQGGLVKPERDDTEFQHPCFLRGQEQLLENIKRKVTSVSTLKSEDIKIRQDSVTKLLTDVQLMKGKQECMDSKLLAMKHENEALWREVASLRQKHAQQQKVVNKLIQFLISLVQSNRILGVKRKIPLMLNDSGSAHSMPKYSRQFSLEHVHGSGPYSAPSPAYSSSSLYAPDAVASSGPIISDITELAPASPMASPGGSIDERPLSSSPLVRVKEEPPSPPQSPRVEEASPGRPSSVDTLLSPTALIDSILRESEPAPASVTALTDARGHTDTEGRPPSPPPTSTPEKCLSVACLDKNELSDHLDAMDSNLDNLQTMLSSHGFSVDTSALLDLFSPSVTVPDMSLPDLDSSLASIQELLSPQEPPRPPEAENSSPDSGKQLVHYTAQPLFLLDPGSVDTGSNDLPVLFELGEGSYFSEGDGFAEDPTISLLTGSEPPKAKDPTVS

Row | Sequence | binding signal [1] | binding signal [2]
1 | TCAGGG | 0.827 | 0.792
2 | AGGGAC | 0.604 | 0.727
3 | AGTCGG | 0.136 | 0.157
4 | GAAGGA | 0.734 | 0.821
5 | CAGTGG | 0.448 | 0.437
6 | CGGTTG | 0.561 | 0.793

— PMC7862700
